Data from EP4818192A1, “USE OF GRP78-LIKE PEPTIDES” (priority 2023, dated 2026).
At least one peptide structure holds a part that was inferred or is arguable (an end, a ring closure or a residue). Ends that are not written are not given here.

Tests used:
TRF-1, TRF-2, and hTERT = test: Aging-associated biomarker expression by qRT-PCR in aged TMSCs; assay type: cell-based, human; settings: aged TMSCs (20 passages), 200 µg/ml, 1 hour; for hTERT expression, fold increase / TRF-2 expression, fold increase: compared to non-treated aged cells; for TRF-1 expression, fold increase: compared to non-treated cells
[1] = tested on: TRF-1, TRF-2, POT1, and GRP78; test: Aging-related biomarker expression by qRT-PCR in young and old rPDL cells; assay type: cell-based, rats; settings: 200 µg/ml, 1 hour; for GRP78 expression: non-treated old rPDL 0.56±0.01; for POT1 expression: non-treated old rPDL control 0.25±0.01
telomerase = test: TRAP assay (TRAPeze RT telomerase detection kit) in TMSC; assay type: cell-based, human; settings: aged TMSC, 24 hours
MyoD1 = test: Immunofluorescence staining of MyoD1 in muscle tissue sections; assay type: in vivo, mice; settings: for MyoD1 protein expression levels: compared to 48-week-old mice not administered peptides
GRP78, AMPKα and CREB = test: Protein expression of factors related to mitochondrial activity and biogenesis in TMSC; assay type: cell-based, human
mitochondria = test: Mitotracker staining of mitochondria in TMSC, confocal microscopy; assay type: cell-based, human; settings: replicatively aged TMSCs, 24 hours
p53 = test: Gene and protein expression of factors associated with mitochondria and telomeres in TMSC; assay type: cell-based, human; settings: replicatively aged TMSCs, 200 µg/ml
telomere length = test: TeloTAGGG telomere length assay in TMSC; assay type: cell-based, human; settings: aged TMSCs, 24 hours, serum-free medium; concentrations tested 0, 100, 200 µg/ml
hTERT = hTERT expression by qRT-PCR in young and aged TMSC; assay type: cell-based, human; settings: aged TMSC (passage 15), 24 hours
[2] = tested on: mitochondrial DNA (mtDNA); test: mtDNA copy number by qRT-PCR in TMSC; assay type: cell-based, human; settings: replicatively aged TMSCs
[3] = tested on: natural aging mouse model; test: Rotarod test in natural aging mouse model; assay type: in vivo, C57BL/6J male mice; settings: 10 mg/kg intramuscular three times a week for four weeks, 25 rpm; for rod retention time compared to 8-week-old (8 w NT) mice: 48-week-old and 72-week-old mice, after 8 weeks; for rod retention time compared to 48 w NT: 48-week-old mice; for retention time on the rod compared to 72 w NT: 72-week-old mice
myosin heavy chain (MYH) = test: Immunofluorescence staining of MYH in muscle tissue sections; assay type: in vivo, mice; settings: for MYH protein expression levels: compared to 48-week-old mice not administered peptides
[4] = tested on: natural aging mouse model; test: H&E staining and muscle fiber diameter in natural aging mouse model; assay type: in vivo, C57BL/6J male mice; settings: for void between muscle fibers: 48- and 72-week-old mice, 4 mg/kg intramuscular three times a week for 4 weeks; for muscle fiber diameter: 8 weeks of administration (4 + additional 4 weeks), 4 mg/kg each, compared to no peptide; for muscle density and muscle fiber diameter: naturally aged mice, summary of Example 9
[5] = old rPDL, non-treated old rPDL 0.13±0.01
[6] = old rPDL, non-treated old rPDL 0.58±0.01
[7] = 48-week-old mice, 4 weeks of administration, compared to 48-week-old mice not administered peptide
[8] = 48-week-old mice, 8 weeks of administration
[9] = 72-week-old mice, 4 weeks of administration, compared to 72-week-old mice not administered peptide
[10] = replicatively aged TMSCs, compared to replicatively aged control group
[11] = 72-week-old mice, 8 weeks of administration, compared to 72-week-old mice not administered the peptides

Sequence | hTERT expression, fold increase (TRF-1, TRF-2, and hTERT) | TRF-1 expression, fold increase (TRF-1, TRF-2, and hTERT) | TRF-2 expression [1, 5] | GRP78 expression ([1]; old rPDL) | TRF-1 expression [1, 6] | POT1 expression ([1]; old rPDL) | TRF-1 expression ([1]; young rPDL) | TRF-2 expression ([1]; young rPDL) | MyoD1 protein expression (MyoD1; [7]) | MyoD1 protein expression levels (MyoD1; [8]) | MyoD1 protein expression (MyoD1; [9]) | rod retention time compared to 8-week-old (8 w NT) mice [3] | rod retention time compared to 48 w NT [3] | retention time on the rod compared to 72 w NT [3] | MYH protein expression (myosin heavy chain (MYH); [7]) | MYH protein expression levels (myosin heavy chain (MYH); [8]) | MYH protein expression (myosin heavy chain (MYH); [9]) | void between muscle fibers [4] | muscle fiber diameter ([4]; 48-week-old mice) | muscle fiber diameter ([4]; 72-week-old mice) | further results
KPYIQVDIGGGQTKTFAPEEISA [SEQ ID NO: 2] | 2.53±0.48 fold | 4.32±0.51 fold | 0.51±0.21 fold | 0.52±0.18 fold | 0.83±0.28 folds | 0.34±0.20 fold | 1.34±0.12 folds | 1.25±0.10 folds |  |  |  |  |  |  |  |  |  |  |  |  | 
MEHFIKLYKKKTGKDVRK [SEQ ID NO: 4, MEHFIKLYKKKTGKDVRK] |  |  | 0.74±0.22 fold | 0.69±0.30 fold | 0.78±0.18 folds | 0.66±0.31 fold | 1.21±0.11 folds | 1.31±0.10 folds | increased | increased | increased | no significant difference | increase | increased retention time | increased | increased | increased | decrease | increased | increased | telomerase expression (TRAP assay) (telomerase): increased; GRP78 protein expression (GRP78, AMPKα and CREB; TMSCs): significantly increased; AMPKα expression (GRP78, AMPKα and CREB; [10]): relative increase; CREB expression (GRP78, AMPKα and CREB; [10]): relative increase; mitochondrial expression (Mitotracker) (mitochondria): slight recovery; p53 expression (p53): significantly reduced; telomere length increase compared to the aged control group (telomere length): 4.94 fold; hTERT expression (hTERT): restored; mtDNA copy number [2]: significantly increased; muscle density and muscle fiber diameter [4]: increased
MVLTKMKETAEAYLGKKVTH [SEQ ID NO: 3] | 2.21±0.16 fold |  | 0.38±0.11 fold |  |  |  |  |  | increased | increased | increased | no significant difference | increase | increased retention time | increased | increased | increased | decrease | increased | increased | TRF-2 expression, fold increase (TRF-1, TRF-2, and hTERT): 1.23±0.04 fold; MyoD1 protein expression (MyoD1; [11]): increased; MYH protein expression (myosin heavy chain (MYH); [11]): increased; muscle density and muscle fiber diameter [4]: increased
TFAPEEISAMVLTK [SEQ ID NO: 1, TFAPEEISAMVLTK] |  | 1.66±0.30 fold |  |  |  |  |  |  |  |  |  |  |  |  |  |  |  |  |  |  | TRF-2 expression, fold increase (TRF-1, TRF-2, and hTERT): 2.86±0.10 fold
